# Measurements reported in patent publication US20150126364A1, “1,3-DIARYL-SUBSTITUTED HETEROCYCLIC PESTICIDES” (E I DU PONT DE NEMOURS AND COMPANY, priority 2012, published 2015).
# Some results were stated once for a whole list of compounds, not compound by compound. At least one compound was matched to its structure with a doubt left.
# System: diamondback moth (Plutella xylostella)
# Test: Test A: control of diamondback moth on radish plant, foliar spray
# Type: in vivo
# Details: sprayed at 50 ppm; 6 days; very good to excellent control
row,Structure (SMILES),control efficacy: feeding damage (40% or less feeding damage and/or 100% mortality) [%]
1,CC(=O)NC1CCN(Cc2cc(-c3ccc(F)c(Cl)c3)nn2-c2ccc(F)cc2)CC1 [Compound 22],≤ 40
2,N#CC1CCN(Cc2cc(-c3ccc(F)c(Cl)c3)nn2-c2ccc(F)cc2)CC1 [Compound 23],≤ 40
3,COC(=O)C1CCN(Cc2oc(-c3ccc(Cl)cc3)nc2-c2ccc(F)cc2)CC1 [Compound 62],≤ 40
4,N#CC1CCN(Cc2[nH]c(-c3ccc(Cl)c(Cl)c3)nc2-c2ccc(F)cc2F)CC1 [Compound 84],≤ 40
5,N#CC1CCN(Cc2[nH]c(-c3ccc(F)c(Cl)c3)nc2-c2ccc(F)cc2F)CC1 [Compound 85],≤ 40
6,N#CC1CCN(Cc2[nH]c(-c3ccc(Cl)c(F)c3)nc2-c2ccc(F)cc2F)CC1 [Compound 86],≤ 40
7,N#CC1CCN(Cc2[nH]c(-c3ccc(Cl)cn3)nc2-c2ccc(F)cc2F)CC1 [Compound 90],≤ 40
8,CC(=O)NC1CCN(Cc2nn(-c3ccc(F)c(Cl)c3)nc2-c2ccccc2F)CC1 [Compound 100],≤ 40
9,CC(=O)NC1CCN(Cc2nn(-c3ccc(C(F)(F)F)cc3)nc2-c2ccc(F)cc2F)CC1 [Compound 104],≤ 40
10,CC(=O)NC1CCN(Cc2nn(-c3ccc(Cl)cc3)nc2-c2ccc(F)cc2F)CC1 [Compound 106],≤ 40
11,CC(=O)NC1CCN(Cc2nn(-c3cccc(C(F)(F)F)c3)nc2-c2ccc(F)cc2F)CC1 [Compound 109],≤ 40
12,COC(=O)C1CCN(Cc2nn(-c3ccc(Cl)cc3)nc2-c2ccc(F)cc2F)CC1 [Compound 110],≤ 40
13,CC(=O)NC1CCN(Cc2nn(-c3cccc(C(F)(F)F)c3)nc2-c2c(F)cc(F)cc2F)CC1 [Compound 113],≤ 40
14,CC(=O)NC1CCN(Cc2nn(-c3ccc(F)c(Cl)c3)nc2-c2c(F)cc(F)cc2F)CC1 [Compound 119],≤ 40
15,CC(=O)NC1CCN(Cc2nn(-c3cccc(C(F)(F)F)n3)nc2-c2ccc(F)cc2F)CC1 [Compound 121],≤ 40
16,CC(=O)N[C@@H]1CCN(Cc2nn(-c3cccc(OC(F)(F)F)c3)nc2-c2ccc(F)cc2F)C1 [Compound 135],≤ 40
17,CC(=O)N[C@@H]1CCN(Cc2nn(-c3ccc(F)c(Cl)c3)nc2-c2ccc(F)cc2F)C1 [Compound 136],≤ 40
18,CC(=O)N[C@@H]1CCN(Cc2nn(-c3cccc(C(F)(F)F)c3)nc2-c2c(F)cc(F)cc2F)C1 [Compound 137],≤ 40

# Same assay, conditions: sprayed at 250 ppm; 6 days; very good to excellent control
row,Structure (SMILES),control efficacy: feeding damage (40% or less feeding damage and/or 100% mortality) [%]
1,COC(=O)C1CCN(Cc2oc(-c3ccc(Cl)cc3)nc2-c2ccc(F)cc2)CC1 [Compound 62],≤ 40

# System: fall armyworm (Spodoptera frugiperda)
# Test: Test B: control of fall armyworm on maize plant, foliar spray
# Type: in vivo
# Details: sprayed at 50 ppm; very good to excellent control
row,Structure (SMILES),control efficacy: feeding damage (40% or less feeding damage and/or 100% mortality) [%]
1,CC(=O)NC1CCN(Cc2cc(-c3ccc(F)c(Cl)c3)nn2-c2ccc(F)cc2)CC1 [Compound 22],≤ 40
2,N#CC1CCN(Cc2cc(-c3ccc(F)c(Cl)c3)nn2-c2ccc(F)cc2)CC1 [Compound 23],≤ 40
3,N#CC1CCN(Cc2[nH]c(-c3ccc(Cl)c(Cl)c3)nc2-c2ccc(F)cc2F)CC1 [Compound 84],≤ 40
4,N#CC1CCN(Cc2[nH]c(-c3ccc(F)c(Cl)c3)nc2-c2ccc(F)cc2F)CC1 [Compound 85],≤ 40
5,N#CC1CCN(Cc2[nH]c(-c3ccc(Cl)c(F)c3)nc2-c2ccc(F)cc2F)CC1 [Compound 86],≤ 40
6,N#CC1CCN(Cc2[nH]c(-c3ccc(Cl)cn3)nc2-c2ccc(F)cc2F)CC1 [Compound 90],≤ 40
7,CC(=O)NC1CCN(Cc2nn(-c3ccc(F)c(Cl)c3)nc2-c2ccccc2F)CC1 [Compound 100],≤ 40
8,CC(=O)NC1CCN(Cc2nn(-c3ccc(C(F)(F)F)cc3)nc2-c2ccc(F)cc2F)CC1 [Compound 104],≤ 40
9,CC(=O)NC1CCN(Cc2nn(-c3ccc(Cl)cc3)nc2-c2ccc(F)cc2F)CC1 [Compound 106],≤ 40
10,CC(=O)NC1CCN(Cc2nn(-c3cccc(C(F)(F)F)c3)nc2-c2ccc(F)cc2F)CC1 [Compound 109],≤ 40
11,COC(=O)C1CCN(Cc2nn(-c3ccc(Cl)cc3)nc2-c2ccc(F)cc2F)CC1 [Compound 110],≤ 40
12,CC(=O)NC1CCN(Cc2nn(-c3cccc(C(F)(F)F)c3)nc2-c2c(F)cc(F)cc2F)CC1 [Compound 113],≤ 40
13,CC(=O)NC1CCN(Cc2nn(-c3ccc(F)c(Cl)c3)nc2-c2c(F)cc(F)cc2F)CC1 [Compound 119],≤ 40
14,CC(=O)N[C@@H]1CCN(Cc2nn(-c3cccc(OC(F)(F)F)c3)nc2-c2ccc(F)cc2F)C1 [Compound 135],≤ 40
15,CC(=O)N[C@@H]1CCN(Cc2nn(-c3ccc(F)c(Cl)c3)nc2-c2ccc(F)cc2F)C1 [Compound 136],≤ 40
16,CC(=O)N[C@@H]1CCN(Cc2nn(-c3cccc(C(F)(F)F)c3)nc2-c2c(F)cc(F)cc2F)C1 [Compound 137],≤ 40

# Same assay, conditions: sprayed at 250 ppm; very good to excellent control
row,Structure (SMILES),control efficacy: feeding damage (40% or less feeding damage and/or 100% mortality) [%]
1,COC(=O)C1CCN(Cc2oc(-c3ccc(Cl)cc3)nc2-c2ccc(F)cc2)CC1 [Compound 62],≤ 40

# System: potato leafhopper (Empoasca fabae)
# Test: Test D: control of potato leafhopper on Soleil bean plant, contact and/or systemic
# Type: in vivo
# Details: sprayed at 50 ppm; 6 days; very good to excellent control
# Procedure: Test compounds were formulated using a solution containing 10% acetone, 90% water and 300 ppm X-77® Spreader Lo-Foam Formula non-ionic surfactant containing alkylarylpolyoxyethylene, free fatty acids, glycols and isopropanol (Loveland Industries, Inc. Greeley, Colo., USA). The formulated compounds were applied in 1 mL of liquid through a SUJ2 atomizer nozzle with ⅛ JJ custom body (Spraying Systems Co., Wheaton, Ill., USA) positioned 1.27 cm (0.5 inches) above the top of each test unit. Test compounds were sprayed at 250 ppm and/or 50 ppm, and replicated three times. After spraying of the formulated test compound, each test unit was allowed to dry for 1 h and then a black, screened cap was placed on top. The test units were held for 6 days in a growth chamber at 25° C. and 70% relative humidity. Plant feeding damage was then visually assessed based on foliage consumed.
# For evaluating control of potato leafhopper (Empoasca fabae) through contact and/or systemic means, the test unit consisted of a small open container with a 5-6-day-old Soleil bean plant (primary leaves emerged) inside. White sand was added to the top of the soil and one of the primary leaves was excised prior to application.
# Test compounds were formulated and sprayed at 250 ppm and/or 50 ppm, and the tests were replicated three times as described for Test A. After spraying, the test units were allowed to dry for 1 h before they were post-infested with 5 potato leafhoppers (18-21-day-old adults). A black, screened cap was placed on the top of each test unit, and the test units were held for 6 days in a growth chamber at 24° C. and 70% relative humidity. Each test unit was then visually assessed for insect mortality.
row,Structure (SMILES),control efficacy: mortality [%]
1,CC(=O)NC1CCN(Cc2cc(-c3ccc(F)c(Cl)c3)nn2-c2ccc(F)cc2)CC1 [Compound 22],≥ 80
2,CC(=O)NC1CCN(Cc2nn(-c3ccc(F)c(Cl)c3)nc2-c2ccccc2F)CC1 [Compound 100],≥ 80
3,CC(=O)NC1CCN(Cc2nn(-c3ccc(C(F)(F)F)cc3)nc2-c2ccc(F)cc2F)CC1 [Compound 104],≥ 80
4,CC(=O)NC1CCN(Cc2nn(-c3ccc(Cl)cc3)nc2-c2ccc(F)cc2F)CC1 [Compound 106],≥ 80
5,CC(=O)NC1CCN(Cc2nn(-c3cccc(C(F)(F)F)c3)nc2-c2ccc(F)cc2F)CC1 [Compound 109],≥ 80
6,CC(=O)NC1CCN(Cc2nn(-c3cccc(C(F)(F)F)c3)nc2-c2c(F)cc(F)cc2F)CC1 [Compound 113],≥ 80
7,CC(=O)NC1CCN(Cc2nn(-c3ccc(F)c(Cl)c3)nc2-c2c(F)cc(F)cc2F)CC1 [Compound 119],≥ 80
8,CC(=O)NC1CCN(Cc2nn(-c3cccc(C(F)(F)F)n3)nc2-c2ccc(F)cc2F)CC1 [Compound 121],≥ 80
9,CC(=O)N[C@@H]1CCN(Cc2nn(-c3ccc(F)c(Cl)c3)nc2-c2ccc(F)cc2F)C1 [Compound 136],≥ 80
10,CC(=O)N[C@@H]1CCN(Cc2nn(-c3cccc(C(F)(F)F)c3)nc2-c2c(F)cc(F)cc2F)C1 [Compound 137],≥ 80

# Same assay, conditions: sprayed at 250 ppm; 6 days; very good to excellent control
row,Structure (SMILES),control efficacy: mortality [%]
1,CC(=O)NC1CCN(Cc2cc(-c3ccc(F)c(Cl)c3)nn2-c2ccc(F)cc2)CC1 [Compound 22],≥ 80
2,N#CC1CCN(Cc2[nH]c(-c3ccc(F)c(Cl)c3)nc2-c2ccc(F)cc2F)CC1 [Compound 85],≥ 80
3,N#CC1CCN(Cc2[nH]c(-c3ccc(Cl)cn3)nc2-c2ccc(F)cc2F)CC1 [Compound 90],≥ 80
4,CC(=O)NC1CCN(Cc2nn(-c3ccc(F)c(Cl)c3)nc2-c2ccccc2F)CC1 [Compound 100],≥ 80
5,CC(=O)NC1CCN(Cc2nn(-c3ccc(C(F)(F)F)cc3)nc2-c2ccc(F)cc2F)CC1 [Compound 104],≥ 80
6,CC(=O)NC1CCN(Cc2nn(-c3ccc(Cl)cc3)nc2-c2ccc(F)cc2F)CC1 [Compound 106],≥ 80
7,CC(=O)NC1CCN(Cc2nn(-c3cccc(C(F)(F)F)c3)nc2-c2ccc(F)cc2F)CC1 [Compound 109],≥ 80
8,CC(=O)NC1CCN(Cc2nn(-c3cccc(C(F)(F)F)c3)nc2-c2c(F)cc(F)cc2F)CC1 [Compound 113],≥ 80
9,CC(=O)NC1CCN(Cc2nn(-c3ccc(F)c(Cl)c3)nc2-c2c(F)cc(F)cc2F)CC1 [Compound 119],≥ 80
10,CC(=O)NC1CCN(Cc2nn(-c3cccc(C(F)(F)F)n3)nc2-c2ccc(F)cc2F)CC1 [Compound 121],≥ 80
11,CC(=O)N[C@@H]1CCN(Cc2nn(-c3cccc(OC(F)(F)F)c3)nc2-c2ccc(F)cc2F)C1 [Compound 135],≥ 80
12,CC(=O)N[C@@H]1CCN(Cc2nn(-c3ccc(F)c(Cl)c3)nc2-c2ccc(F)cc2F)C1 [Compound 136],≥ 80
13,CC(=O)N[C@@H]1CCN(Cc2nn(-c3cccc(C(F)(F)F)c3)nc2-c2c(F)cc(F)cc2F)C1 [Compound 137],≥ 80
